± gives the uncertainty stated by the source. The uncertainty is large for many entries.
Experiment: self-splicing fitness, log relative to wild type (ln ratio); higher = more splicing; Tetrahymena group I intron in knt gene, E. coli kanamycin selection, DiMSum; sequences stand for … in CUCUCU…GGAGGGAAAAGUUAUCAGGCAUGCACCUGGUAGCUAGUCUUUAAACCAAUAGAUUGCAUCGGUUUAAAAGGCAAGACCGUCAAAUUGCGGGAAAGGGGUCAACAGCCGUUCAGUACCAAGUCUCAGGGGAAACUUUGAGAUGGCCUUGCAAAGGGUAUGGUAAUAAGCUGACGGACAUGGUCCUAACCACGCAGCCAAGUCCUAAGUCAACAGAUCUUCUGUUGAUAUGGAUGCAGUUCACAGACUAAAUGUCGGUCGGGGAAGAUGUAUUCUUCUCAUAAGAUAUAGUCGGACCUCUCCUUAAUGGGAGCUAGCGGAUGAAGUGAUGCAACACUGGAGCCGCUGGGAACUAAUUUGUAUGCGAAAGUAUAUUGAUUAGUUUUGGAGUACUCGUGGUCG
How it was run: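 A randomised library covering all eight P1ex-region intron nucleotides was built with the intron in the knt kanamycin-resistance gene on pET-22b(+) and held in E. coli BL21(DE3). Cells were grown overnight at 37°C or 30°C on LB agar, with or without 25 μg/mL kanamycin, plus 100 μg/mL carbenicillin, 50 μM IPTG and 0.2% rhamnose, and pooled colonies were amplicon-sequenced on an Illumina HiSeq 2500. DiMSum fitness is the error-weighted combination of wild-type-normalised replicate fold changes, kanamycin versus none.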

With GCUUAGCAAUAUUACGUCCC the “self-splicing fitness (ln)” value (37 °C) was -0.932 ± 0.59.

With AGUGAGCAAUAUUACGUGUG the “self-splicing fitness (ln)” value (37 °C) was -3.12 ± 0.53.

With UCUGAGCAAUAUUACGCCUA the “self-splicing fitness (ln)” value (30 °C) was -3.15 ± 0.63.

In the case of CGUUAGCAAUAUUACGAAUU, the “self-splicing fitness (ln)” value (30 °C) is reported as -3.23 ± 1.

For CUUAAGCAAUAUUACGAAGU, the “self-splicing fitness (ln)” value (30 °C) was -2.9 ± 0.13 and the “self-splicing fitness (ln)” value (37 °C) was -2.19 ± 0.18.

For CGGGAGCAAUAUUACGGAUC, the “self-splicing fitness (ln)” value (30 °C) was -3.09 ± 0.43 and the “self-splicing fitness (ln)” value (37 °C) was -2.07 ± 0.42.

In the case of UCAUAGCAAUAUUACGUGGC, the “self-splicing fitness (ln)” value (30 °C) is reported as -4.46 ± 1.

For GGCGAGCAAUAUUACGAAUA, the “self-splicing fitness (ln)” value (30 °C) was -1.96 ± 1.2 and the “self-splicing fitness (ln)” value (37 °C) was -0.638 ± 0.87.

In the case of GACGAGCAAUAUUACGAAUA, the “self-splicing fitness (ln)” value (30 °C) is reported as -3.54 ± 0.73 and the “self-splicing fitness (ln)” value (37 °C) is reported as -2.7 ± 0.75.

For GAUCAGCAAUAUUACGGUUC, the “self-splicing fitness (ln)” value (30 °C) was -2.83 ± 0.23 and the “self-splicing fitness (ln)” value (37 °C) was -0.31 ± 0.14.

With GUAGAGCAAUAUUACGAGCC the “self-splicing fitness (ln)” value (37 °C) was -1.8 ± 0.67.

In the case of AUCGAGCAAUAUUACGCAGU, the “self-splicing fitness (ln)” value (30 °C) is reported as -2.07 ± 0.23 and the “self-splicing fitness (ln)” value (37 °C) is reported as -1.85 ± 0.33.

With UGUGAGCAAUAUUACGCUCG the “self-splicing fitness (ln)” value (30 °C) was -2.36 ± 1.2 and the “self-splicing fitness (ln)” value (37 °C) was -1.51 ± 0.84.

For GUUCAGCAAUAUUACGCCCA, the “self-splicing fitness (ln)” value (30 °C) was -0.553 ± 0.1 and the “self-splicing fitness (ln)” value (37 °C) was -1.26 ± 0.1.

For GGGAAGCAAUAUUACGACCC, the “self-splicing fitness (ln)” value (30 °C) was -3.88 ± 1.1.

For AGUUAGCAAUAUUACGUUUC, the “self-splicing fitness (ln)” value (37 °C) was -4.82 ± 1.

For UGCUAGCAAUAUUACGGAUA, the “self-splicing fitness (ln)” value (30 °C) was -1.44 ± 0.11 and the “self-splicing fitness (ln)” value (37 °C) was -1.1 ± 0.13.

With AGGGAGCAAUAUUACGAUAU the “self-splicing fitness (ln)” value (30 °C) was -2.38 ± 0.57.

For UGAGAGCAAUAUUACGAGCA, the “self-splicing fitness (ln)” value (30 °C) was -1.05 ± 0.67.

In the case of CGGGAGCAAUAUUACGGAGA, the “self-splicing fitness (ln)” value (37 °C) is reported as -2.58 ± 0.76.

With UAGGAGCAAUAUUACGACAC the “self-splicing fitness (ln)” value (30 °C) was -3.28 ± 0.75 and the “self-splicing fitness (ln)” value (37 °C) was -3.33 ± 1.

In the case of AAUAAGCAAUAUUACGGACG, the “self-splicing fitness (ln)” value (30 °C) is reported as -0.851 ± 0.15 and the “self-splicing fitness (ln)” value (37 °C) is reported as -0.397 ± 0.15.

In the case of CUUGAGCAAUAUUACGACCA, the “self-splicing fitness (ln)” value (37 °C) is reported as -2.08 ± 1.1.

With UGGCAGCAAUAUUACGAGAU the “self-splicing fitness (ln)” value (37 °C) was -2.3 ± 0.55.

For UUCGAGCAAUAUUACGCAAA, the “self-splicing fitness (ln)” value (30 °C) was -0.773 ± 0.28 and the “self-splicing fitness (ln)” value (37 °C) was -1.92 ± 0.26.

In the case of UUUCAGCAAUAUUACGAGCC, the “self-splicing fitness (ln)” value (30 °C) is reported as -2.62 ± 1.1.

In the case of AGGGAGCAAUAUUACGCCUU, the “self-splicing fitness (ln)” value (37 °C) is reported as -2.9 ± 0.53.

In the case of CCGGAGCAAUAUUACGCCCU, the “self-splicing fitness (ln)” value (30 °C) is reported as -3.8 ± 0.53.

For CUUAAGCAAUAUUACGCAAU, the “self-splicing fitness (ln)” value (30 °C) was -4.29 ± 0.75.

In the case of GUUGAGCAAUAUUACGAGCC, the “self-splicing fitness (ln)” value (37 °C) is reported as -1.9 ± 0.79.

For UCGUAGCAAUAUUACGUGUU, the “self-splicing fitness (ln)” value (30 °C) was -3.06 ± 0.21 and the “self-splicing fitness (ln)” value (37 °C) was -2.46 ± 0.19.

For UCCCAGCAAUAUUACGCUAC, the “self-splicing fitness (ln)” value (30 °C) was -3.76 ± 0.6.

With AUCCAGCAAUAUUACGUUAC the “self-splicing fitness (ln)” value (30 °C) was -3.89 ± 0.24 and the “self-splicing fitness (ln)” value (37 °C) was -2.59 ± 0.22.

In the case of AGAGAGCAAUAUUACGCGCC, the “self-splicing fitness (ln)” value (37 °C) is reported as -2.09 ± 0.52.

With CUCGAGCAAUAUUACGAUCC the “self-splicing fitness (ln)” value (30 °C) was -2.95 ± 1.1 and the “self-splicing fitness (ln)” value (37 °C) was -1.84 ± 1.1.

In the case of CAGAAGCAAUAUUACGGUCC, the “self-splicing fitness (ln)” value (37 °C) is reported as -3.96 ± 0.51.

In the case of UCGCAGCAAUAUUACGAUUC, the “self-splicing fitness (ln)” value (37 °C) is reported as -2.77 ± 0.74.

In the case of UUGUAGCAAUAUUACGCUCC, the “self-splicing fitness (ln)” value (37 °C) is reported as -1.68 ± 0.7.

For CUGGAGCAAUAUUACGCUGU, the “self-splicing fitness (ln)” value (30 °C) was -4.32 ± 0.59.

For GGUGAGCAAUAUUACGCCUU, the “self-splicing fitness (ln)” value (30 °C) was -2.16 ± 0.57.

For CGUUAGCAAUAUUACGUGAC, the “self-splicing fitness (ln)” value (30 °C) was -3.39 ± 0.79 and the “self-splicing fitness (ln)” value (37 °C) was -1.13 ± 1.2.

In the case of UCCGAGCAAUAUUACGGCUC, the “self-splicing fitness (ln)” value (30 °C) is reported as -3.87 ± 0.6.

In the case of ACCCAGCAAUAUUACGGUCC, the “self-splicing fitness (ln)” value (30 °C) is reported as -1.61 ± 0.085 and the “self-splicing fitness (ln)” value (37 °C) is reported as -1.4 ± 0.12.

With UCGCAGCAAUAUUACGCUAC the “self-splicing fitness (ln)” value (37 °C) was -2.74 ± 0.54.

With AUAGAGCAAUAUUACGGUGG the “self-splicing fitness (ln)” value (37 °C) was -0.693 ± 1.4.

With AGUUAGCAAUAUUACGUUGA the “self-splicing fitness (ln)” value (30 °C) was -2.03 ± 0.31 and the “self-splicing fitness (ln)” value (37 °C) was -2.02 ± 0.39.

With AGAGAGCAAUAUUACGAGUC the “self-splicing fitness (ln)” value (30 °C) was -4.42 ± 1.

For GGGCAGCAAUAUUACGCUAC, the “self-splicing fitness (ln)” value (30 °C) was -4.39 ± 1 and the “self-splicing fitness (ln)” value (37 °C) was 0.279 ± 0.5.

With UGUGAGCAAUAUUACGUCUC the “self-splicing fitness (ln)” value (37 °C) was -3.16 ± 0.74.

For AAUAAGCAAUAUUACGGAGC, the “self-splicing fitness (ln)” value (37 °C) was -3.06 ± 0.74.

In the case of UUCAAGCAAUAUUACGCGGC, the “self-splicing fitness (ln)” value (30 °C) is reported as -2.36 ± 0.67 and the “self-splicing fitness (ln)” value (37 °C) is reported as -2.03 ± 0.66.

In the case of UAGUAGCAAUAUUACGAGAC, the “self-splicing fitness (ln)” value (30 °C) is reported as -5.83 ± 1.

With AGUUAGCAAUAUUACGCCAA the “self-splicing fitness (ln)” value (30 °C) was -2.48 ± 0.65.

With GCGUAGCAAUAUUACGAGGA the “self-splicing fitness (ln)” value (37 °C) was -1.94 ± 0.82.

In the case of GUGUAGCAAUAUUACGUAUC, the “self-splicing fitness (ln)” value (37 °C) is reported as -1.52 ± 0.51.

For UAGGAGCAAUAUUACGCGGU, the “self-splicing fitness (ln)” value (30 °C) was -1.52 ± 0.23 and the “self-splicing fitness (ln)” value (37 °C) was -2.13 ± 0.51.

With AUUAAGCAAUAUUACGACGU the “self-splicing fitness (ln)” value (30 °C) was 0.564 ± 0.087 and the “self-splicing fitness (ln)” value (37 °C) was 0.495 ± 0.093.

With CUUGAGCAAUAUUACGGCUA the “self-splicing fitness (ln)” value (30 °C) was -1.75 ± 0.76.

In the case of UUCAAGCAAUAUUACGGGCA, the “self-splicing fitness (ln)” value (30 °C) is reported as -0.666 ± 0.11 and the “self-splicing fitness (ln)” value (37 °C) is reported as 0.111 ± 0.1.

With UUGGAGCAAUAUUACGCUUG the “self-splicing fitness (ln)” value (30 °C) was -2.69 ± 0.3 and the “self-splicing fitness (ln)” value (37 °C) was -1.25 ± 0.27.

Source: the supplement of paper PMC7877785
